Assay results as given in publication PMC6612395.
These are yes or no findings as the source states them, for the method shown. In cells and extracts the contact can be indirect. Some entries that bind do so weakly or less than the wild type.

Amino acid sequences for entries named in this document (tags omitted). Residues count along the entry.
UniProt P98161, residues 3895-4302: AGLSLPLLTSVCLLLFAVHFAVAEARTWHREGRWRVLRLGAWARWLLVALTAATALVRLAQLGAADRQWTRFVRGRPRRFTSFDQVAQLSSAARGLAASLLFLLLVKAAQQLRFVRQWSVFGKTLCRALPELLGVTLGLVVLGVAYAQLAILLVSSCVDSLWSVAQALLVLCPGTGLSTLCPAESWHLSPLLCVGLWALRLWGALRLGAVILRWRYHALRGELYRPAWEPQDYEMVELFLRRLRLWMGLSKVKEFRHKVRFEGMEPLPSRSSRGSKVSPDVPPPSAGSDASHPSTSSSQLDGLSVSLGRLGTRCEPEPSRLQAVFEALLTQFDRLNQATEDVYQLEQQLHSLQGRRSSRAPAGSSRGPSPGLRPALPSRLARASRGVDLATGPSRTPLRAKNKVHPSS
UniProt P19525: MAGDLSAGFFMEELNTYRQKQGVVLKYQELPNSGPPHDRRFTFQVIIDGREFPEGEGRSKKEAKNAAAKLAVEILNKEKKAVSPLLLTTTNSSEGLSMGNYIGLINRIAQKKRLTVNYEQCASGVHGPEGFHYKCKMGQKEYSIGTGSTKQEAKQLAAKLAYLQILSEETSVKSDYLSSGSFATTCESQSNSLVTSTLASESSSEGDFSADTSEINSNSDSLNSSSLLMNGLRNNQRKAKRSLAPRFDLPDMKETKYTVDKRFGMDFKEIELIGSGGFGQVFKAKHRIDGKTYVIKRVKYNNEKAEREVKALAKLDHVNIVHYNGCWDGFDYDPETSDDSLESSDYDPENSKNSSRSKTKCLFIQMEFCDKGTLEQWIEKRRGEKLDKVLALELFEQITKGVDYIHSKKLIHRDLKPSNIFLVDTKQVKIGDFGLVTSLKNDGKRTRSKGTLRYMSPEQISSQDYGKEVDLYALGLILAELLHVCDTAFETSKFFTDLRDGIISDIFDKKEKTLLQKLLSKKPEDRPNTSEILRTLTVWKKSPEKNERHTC

Target: GFP-tagged PC1-5TMC (polycystin-1 truncation comprising the last 5 TMs plus C-terminus, aa 3895-4302) (UniProt P98161)
Test: co-IP; HeLa cells transfected with pEGFP-PC1-5TMC or pEGFP, collected 40 hr after transfection; extract immunoprecipitated with anti-GFP (EU4); blot with anti-GFP (B-2), reprobed with anti-mTOR or anti-PKR

In the case of “Protein kinase RNA-activated (PKR) (from UniProt P19525 1-551)”, the binding is reported as “binds”.
